Assay results from the supplement of paper PMC12067093, “Discovery and optimisation of a covalent ligand for TRIM25 and its application to targeted protein ubiquitination” (Chemical Science, 2025).
This is one part of the list.

Sequences of proteins named here, by UniProt entry; tags and fusion partners are left off. A change or cut given only in a name is not applied to a line headed by its entry.
UniProt Q5T4S7, whole entry, looked up: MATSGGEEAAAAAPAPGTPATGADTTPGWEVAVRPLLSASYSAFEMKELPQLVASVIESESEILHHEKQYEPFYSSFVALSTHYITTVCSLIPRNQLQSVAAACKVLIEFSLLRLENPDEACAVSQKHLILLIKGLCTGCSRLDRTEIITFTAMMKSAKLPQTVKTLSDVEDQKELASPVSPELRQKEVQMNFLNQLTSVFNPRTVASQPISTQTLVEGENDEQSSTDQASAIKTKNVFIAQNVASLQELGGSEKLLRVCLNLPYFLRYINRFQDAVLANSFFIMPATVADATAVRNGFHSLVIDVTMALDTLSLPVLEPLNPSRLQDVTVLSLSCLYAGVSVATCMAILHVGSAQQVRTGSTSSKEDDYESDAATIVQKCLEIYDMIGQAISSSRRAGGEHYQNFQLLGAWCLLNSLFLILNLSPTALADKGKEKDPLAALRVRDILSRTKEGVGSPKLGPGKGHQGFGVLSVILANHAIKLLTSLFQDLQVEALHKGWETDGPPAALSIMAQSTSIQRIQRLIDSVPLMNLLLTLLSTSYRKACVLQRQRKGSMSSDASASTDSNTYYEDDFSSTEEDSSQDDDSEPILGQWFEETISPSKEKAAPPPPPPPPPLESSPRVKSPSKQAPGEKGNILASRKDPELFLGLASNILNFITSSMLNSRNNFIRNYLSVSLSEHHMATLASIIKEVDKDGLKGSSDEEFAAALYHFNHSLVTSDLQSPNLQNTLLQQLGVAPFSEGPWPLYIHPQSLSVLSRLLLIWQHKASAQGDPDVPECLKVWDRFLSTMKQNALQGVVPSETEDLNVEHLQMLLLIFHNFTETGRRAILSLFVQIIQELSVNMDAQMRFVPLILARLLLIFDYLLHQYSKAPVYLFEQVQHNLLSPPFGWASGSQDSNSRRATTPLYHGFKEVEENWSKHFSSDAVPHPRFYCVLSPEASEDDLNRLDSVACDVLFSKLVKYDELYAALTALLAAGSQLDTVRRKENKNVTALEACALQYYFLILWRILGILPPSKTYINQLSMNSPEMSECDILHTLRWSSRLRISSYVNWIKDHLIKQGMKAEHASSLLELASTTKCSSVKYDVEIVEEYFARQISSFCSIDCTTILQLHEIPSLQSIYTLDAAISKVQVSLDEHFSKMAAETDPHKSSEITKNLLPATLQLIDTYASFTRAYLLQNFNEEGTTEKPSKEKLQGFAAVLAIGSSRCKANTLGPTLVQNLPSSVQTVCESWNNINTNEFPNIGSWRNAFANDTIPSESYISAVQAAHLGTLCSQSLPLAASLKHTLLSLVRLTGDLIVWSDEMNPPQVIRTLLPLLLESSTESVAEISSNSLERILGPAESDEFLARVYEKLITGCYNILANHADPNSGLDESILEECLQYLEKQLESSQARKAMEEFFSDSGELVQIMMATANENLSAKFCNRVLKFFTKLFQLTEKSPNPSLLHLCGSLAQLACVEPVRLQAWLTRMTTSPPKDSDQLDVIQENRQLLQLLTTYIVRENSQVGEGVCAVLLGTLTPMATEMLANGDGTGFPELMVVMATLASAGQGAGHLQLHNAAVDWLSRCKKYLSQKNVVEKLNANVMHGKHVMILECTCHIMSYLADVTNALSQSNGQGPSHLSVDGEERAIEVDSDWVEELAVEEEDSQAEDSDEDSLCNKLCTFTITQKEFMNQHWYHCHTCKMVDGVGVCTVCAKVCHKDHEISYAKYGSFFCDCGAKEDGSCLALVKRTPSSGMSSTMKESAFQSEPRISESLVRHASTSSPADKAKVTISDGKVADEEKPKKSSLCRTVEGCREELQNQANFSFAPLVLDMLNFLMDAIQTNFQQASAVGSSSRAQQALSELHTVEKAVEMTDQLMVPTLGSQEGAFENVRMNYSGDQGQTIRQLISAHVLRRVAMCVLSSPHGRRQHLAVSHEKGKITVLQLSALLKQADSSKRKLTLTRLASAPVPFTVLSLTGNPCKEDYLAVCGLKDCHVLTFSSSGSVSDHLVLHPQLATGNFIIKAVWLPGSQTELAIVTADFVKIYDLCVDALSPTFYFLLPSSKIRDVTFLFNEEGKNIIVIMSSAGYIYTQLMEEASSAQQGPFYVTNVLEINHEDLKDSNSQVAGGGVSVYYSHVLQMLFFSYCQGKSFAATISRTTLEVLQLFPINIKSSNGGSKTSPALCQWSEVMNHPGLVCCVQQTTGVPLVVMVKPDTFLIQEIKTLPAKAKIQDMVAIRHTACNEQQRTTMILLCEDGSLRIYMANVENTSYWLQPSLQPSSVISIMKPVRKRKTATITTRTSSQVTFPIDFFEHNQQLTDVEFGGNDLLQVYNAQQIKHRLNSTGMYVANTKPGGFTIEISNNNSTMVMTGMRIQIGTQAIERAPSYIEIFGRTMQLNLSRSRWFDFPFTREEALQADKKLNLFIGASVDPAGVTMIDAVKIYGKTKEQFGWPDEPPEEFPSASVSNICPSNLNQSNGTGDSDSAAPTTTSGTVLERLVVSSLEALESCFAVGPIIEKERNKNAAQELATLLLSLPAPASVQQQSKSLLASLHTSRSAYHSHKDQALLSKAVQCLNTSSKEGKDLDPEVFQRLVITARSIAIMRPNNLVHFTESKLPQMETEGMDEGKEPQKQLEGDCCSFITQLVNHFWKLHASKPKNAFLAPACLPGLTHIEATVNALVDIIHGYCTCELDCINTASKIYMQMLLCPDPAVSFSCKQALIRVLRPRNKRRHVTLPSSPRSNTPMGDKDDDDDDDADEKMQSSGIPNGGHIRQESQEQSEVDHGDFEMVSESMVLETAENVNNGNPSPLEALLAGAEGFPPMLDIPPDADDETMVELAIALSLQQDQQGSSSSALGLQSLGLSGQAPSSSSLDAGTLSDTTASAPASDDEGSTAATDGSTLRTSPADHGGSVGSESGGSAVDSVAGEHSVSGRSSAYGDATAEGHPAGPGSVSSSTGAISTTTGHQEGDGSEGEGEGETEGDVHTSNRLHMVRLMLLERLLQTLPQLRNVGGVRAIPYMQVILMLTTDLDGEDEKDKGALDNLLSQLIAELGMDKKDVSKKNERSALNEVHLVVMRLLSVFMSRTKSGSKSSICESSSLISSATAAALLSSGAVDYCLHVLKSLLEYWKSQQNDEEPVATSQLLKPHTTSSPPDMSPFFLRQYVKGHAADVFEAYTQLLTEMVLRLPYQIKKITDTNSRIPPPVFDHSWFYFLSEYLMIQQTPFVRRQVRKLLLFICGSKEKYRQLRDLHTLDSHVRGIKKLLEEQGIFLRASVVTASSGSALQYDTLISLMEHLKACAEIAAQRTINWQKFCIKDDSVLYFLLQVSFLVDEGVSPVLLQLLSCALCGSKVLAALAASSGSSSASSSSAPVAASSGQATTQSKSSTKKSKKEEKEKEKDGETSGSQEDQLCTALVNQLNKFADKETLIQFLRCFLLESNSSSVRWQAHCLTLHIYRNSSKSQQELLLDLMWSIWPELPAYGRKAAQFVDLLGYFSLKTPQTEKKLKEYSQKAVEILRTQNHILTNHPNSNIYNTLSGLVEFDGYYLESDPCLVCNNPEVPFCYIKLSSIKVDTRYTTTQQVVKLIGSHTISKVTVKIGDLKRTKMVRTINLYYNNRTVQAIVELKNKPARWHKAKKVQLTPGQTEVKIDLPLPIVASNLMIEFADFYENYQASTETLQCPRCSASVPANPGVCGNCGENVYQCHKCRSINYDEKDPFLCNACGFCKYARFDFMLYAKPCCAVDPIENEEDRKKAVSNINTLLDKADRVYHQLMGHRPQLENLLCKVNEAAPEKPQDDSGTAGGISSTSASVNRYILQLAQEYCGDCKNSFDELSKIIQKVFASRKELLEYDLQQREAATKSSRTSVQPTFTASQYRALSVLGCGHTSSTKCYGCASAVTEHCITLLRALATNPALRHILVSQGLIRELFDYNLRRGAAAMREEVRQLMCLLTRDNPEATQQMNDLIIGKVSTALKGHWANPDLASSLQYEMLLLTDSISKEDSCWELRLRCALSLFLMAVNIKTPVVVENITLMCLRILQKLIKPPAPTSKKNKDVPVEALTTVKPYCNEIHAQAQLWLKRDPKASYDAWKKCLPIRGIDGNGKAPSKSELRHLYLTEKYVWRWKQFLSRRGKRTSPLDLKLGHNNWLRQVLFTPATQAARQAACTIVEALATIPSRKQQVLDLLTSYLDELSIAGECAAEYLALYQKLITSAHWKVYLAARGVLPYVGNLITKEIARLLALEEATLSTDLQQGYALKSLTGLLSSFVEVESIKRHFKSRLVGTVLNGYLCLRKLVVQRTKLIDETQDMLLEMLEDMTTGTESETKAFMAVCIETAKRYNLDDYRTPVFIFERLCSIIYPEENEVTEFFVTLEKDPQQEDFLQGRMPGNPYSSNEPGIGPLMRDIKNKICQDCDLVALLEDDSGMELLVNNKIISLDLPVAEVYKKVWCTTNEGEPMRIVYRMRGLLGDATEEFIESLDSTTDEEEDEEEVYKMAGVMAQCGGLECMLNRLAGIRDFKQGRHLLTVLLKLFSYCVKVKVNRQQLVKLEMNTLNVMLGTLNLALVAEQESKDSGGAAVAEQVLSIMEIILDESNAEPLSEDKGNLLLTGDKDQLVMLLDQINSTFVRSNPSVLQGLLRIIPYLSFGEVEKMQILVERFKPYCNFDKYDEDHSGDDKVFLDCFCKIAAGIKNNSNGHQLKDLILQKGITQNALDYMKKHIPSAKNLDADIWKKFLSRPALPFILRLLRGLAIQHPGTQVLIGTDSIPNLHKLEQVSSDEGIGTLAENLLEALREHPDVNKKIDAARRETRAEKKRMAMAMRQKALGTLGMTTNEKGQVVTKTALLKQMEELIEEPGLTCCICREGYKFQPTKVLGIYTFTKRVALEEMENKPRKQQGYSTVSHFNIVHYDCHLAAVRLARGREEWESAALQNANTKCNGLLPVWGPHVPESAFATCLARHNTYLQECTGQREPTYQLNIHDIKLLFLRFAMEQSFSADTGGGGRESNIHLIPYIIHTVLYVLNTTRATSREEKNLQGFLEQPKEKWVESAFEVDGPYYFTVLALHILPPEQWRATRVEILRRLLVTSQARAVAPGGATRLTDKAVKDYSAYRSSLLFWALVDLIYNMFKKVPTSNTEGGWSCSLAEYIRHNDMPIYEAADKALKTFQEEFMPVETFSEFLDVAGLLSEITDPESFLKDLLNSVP
UniProt P29597: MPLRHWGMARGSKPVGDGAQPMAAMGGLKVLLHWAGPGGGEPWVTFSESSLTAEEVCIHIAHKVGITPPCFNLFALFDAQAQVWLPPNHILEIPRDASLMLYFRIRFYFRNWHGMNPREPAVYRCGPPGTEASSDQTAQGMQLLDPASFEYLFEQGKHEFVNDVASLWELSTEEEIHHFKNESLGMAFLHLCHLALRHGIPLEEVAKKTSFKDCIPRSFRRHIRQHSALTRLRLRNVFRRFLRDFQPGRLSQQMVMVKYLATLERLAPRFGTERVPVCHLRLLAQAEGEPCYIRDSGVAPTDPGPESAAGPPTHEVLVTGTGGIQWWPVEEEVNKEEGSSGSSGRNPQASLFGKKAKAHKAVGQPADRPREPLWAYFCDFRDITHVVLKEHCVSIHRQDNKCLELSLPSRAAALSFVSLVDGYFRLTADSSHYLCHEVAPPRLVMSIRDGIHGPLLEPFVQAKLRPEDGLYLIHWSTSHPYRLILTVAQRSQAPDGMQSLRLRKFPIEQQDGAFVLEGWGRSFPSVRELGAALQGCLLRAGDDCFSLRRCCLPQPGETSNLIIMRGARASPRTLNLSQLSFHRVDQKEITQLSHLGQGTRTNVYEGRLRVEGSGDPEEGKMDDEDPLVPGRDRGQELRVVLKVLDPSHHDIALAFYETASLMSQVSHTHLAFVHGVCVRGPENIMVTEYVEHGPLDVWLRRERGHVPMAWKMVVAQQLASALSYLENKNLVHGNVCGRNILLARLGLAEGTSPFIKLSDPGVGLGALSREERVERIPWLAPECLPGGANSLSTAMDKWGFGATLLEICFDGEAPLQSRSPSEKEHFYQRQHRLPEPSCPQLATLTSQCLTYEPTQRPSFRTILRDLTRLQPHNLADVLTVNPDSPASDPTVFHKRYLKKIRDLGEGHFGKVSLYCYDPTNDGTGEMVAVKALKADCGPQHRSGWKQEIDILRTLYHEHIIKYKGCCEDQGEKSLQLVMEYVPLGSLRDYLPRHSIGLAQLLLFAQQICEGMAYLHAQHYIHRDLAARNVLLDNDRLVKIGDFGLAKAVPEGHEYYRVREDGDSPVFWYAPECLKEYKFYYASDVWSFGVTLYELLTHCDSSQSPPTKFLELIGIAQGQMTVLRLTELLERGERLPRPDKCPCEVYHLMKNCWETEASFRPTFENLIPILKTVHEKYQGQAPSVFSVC
UniProt P51965: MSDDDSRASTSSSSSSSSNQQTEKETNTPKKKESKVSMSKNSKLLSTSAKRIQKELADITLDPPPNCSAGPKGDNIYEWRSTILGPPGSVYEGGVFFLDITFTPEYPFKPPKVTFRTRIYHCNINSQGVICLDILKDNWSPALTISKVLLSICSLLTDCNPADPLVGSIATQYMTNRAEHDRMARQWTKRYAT

Compound: Cc1cc(ccc1-c1ccccc1)C(=O)N1CCCN(CC1)C(=O)CCl [compound 10]
Assay: probe-labelled cysteine peptide fold change vs DMSO (competition) (log2 fold change); higher = less target engagement (more negative = stronger competition)
Conditions: THP-1, incubation time: 4 h
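Note: competitive profiling in live THP-1 cells: cysteine peptides tagged with an iodoacetamide desthiobiotin (IA-DTB) probe, intensity after compound treatment relative to DMSO-treated cells.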

Row | Target | probe-labelled cysteine peptide fold change (10 µM) | probe-labelled cysteine peptide fold change (50 µM)
1 | UBA6_A0AVT1_468+473_LQNLNIFLVGCGAIGCEMLK | -0.0565 | 0.00786
2 | U2AF2_P26368_464_YCDPDSYHRR (UniProt P26368) | 0.162 | -0.258
3 | UBA6_A0AVT1_96_CQAWDLGTNFFLSEDDVVNK | -0.26 | 0.29
4 | UBR4_Q5T4S7_3864_ALSVLGCGHTSSTK (UniProt Q5T4S7) | 0.108 | -0.246
5 | UBA2_Q9UBT2_129_MCLAADVPLIESGTAGYLGQVTTIK (UniProt Q9UBT2) | -0.0118 | 0.124
6 | UBR4_Q5T4S7_3765_VYHQLMGHRPQLENLLCK (UniProt Q5T4S7) | -0.0725 | -0.0799
7 | UACA_Q9BZF9_125_LLQYNCPTEHADLQGR (UniProt Q9BZF9) | -0.133 | -0.0499
8 | TYK2_P29597_736_NLVHGNVCGR (UniProt P29597) | -0.00731 | -0.24
9 | UBR2_Q8IWV8_99_LEQANKPSHLCGR (UniProt Q8IWV8) | -0.0959 | -0.175
10 | UACA_Q9BZF9_1258_KYEEVCEEVLHAK (UniProt Q9BZF9) | 0.18 | 0.267
11 | UBA6_A0AVT1_311_CLIVDFSNPEAPLEIHTAMLALDQFQEK | 0.275 | 0.292
12 | UBR4_Q5T4S7_4838+4841_QMEELIEEPGLTCCICR (UniProt Q5T4S7) | 0.351 | -0.00299
13 | UBE2M_P61081_95+111_CETMVYHPNIDLEGNVCLNILR (UniProt P61081) | 0.264 | 0.228
14 | UBE2E1_P51965_122_IYHCNINSQGVICLDILK (UniProt P51965) | -0.44 | 0.542
15 | UBAP1_Q9NZ09_161_ADFNLADFECEEDPFDNLELK (UniProt Q9NZ09) | -0.206 | -0.0825
16 | UBE3C_Q15386_1018_FVTSCSRPPLLGFK (UniProt Q15386) | -0.242 | 0.0815
17 | UBA6_A0AVT1_449_ACIGDTLCQK | -0.0646 | 0.113
18 | UBR5_O95071_2094_NCLEVLPTK (UniProt O95071) | -0.311 | -0.989

Taken from above.
Value of UBE2M_P61081_95+111_CETMVYHPNIDLEGNVCLNILR (UniProt P61081) under probe-labelled cysteine peptide fold change (50 µM): 0.228
Value of UBE2E1_P51965_122_IYHCNINSQGVICLDILK (UniProt P51965) under probe-labelled cysteine peptide fold change (10 µM): -0.44

More entries follow.

Row | Target | probe-labelled cysteine peptide fold change (10 µM) | probe-labelled cysteine peptide fold change (50 µM)
19 | UBE2Z_Q9H832_243_NYNECIR (UniProt Q9H832) | -0.229 | -0.257
20 | UBE2L6_O14933_86+98_IYHPNVDENGQICLPIISSENWKPCTK (UniProt O14933) | -0.606 | -1.39
21 | UBASH3B_Q8TF42_135_AHNIFPHITLCQFFMCEDSKVDALGEALQTTVSR (UniProt Q8TF42) | 0.216 | -0.422
22 | UBE3A_Q05086_843_NGPDTERLPTSHTCFNVLLLPEYSSK (UniProt Q05086) | -0.114 | -0.368
23 | TXNRD1_Q16881_214_WGLGGTCVNVGCIPKK (UniProt Q16881) | -0.00826 | -0.749
24 | TXNRD2_Q9NNW7_523_SGLDPTVTGCUG (UniProt Q9NNW7) | -1.15 | -2.15
25 | UBR4_Q5T4S7_4890_KQQGYSTVSHFNIVHYDCHLAAVR (UniProt Q5T4S7) | 0.0563 | -0.151
26 | UBA1_P22314_179_VGEFCHNR (UniProt P22314) | 0.0693 | 0.0567
27 | UBR4_Q5T4S7_3677_CSASVPANPGVCGNCGENVYQCHK (UniProt Q5T4S7) | 0.131 | 0.276
28 | UBA1_P22314_748_RCPHPLTFDVNNPLHLDYVMAAANLFAQTYGLTGSQDR (UniProt P22314) | -0.0255 | 0.114
29 | TYK2_P29597_435_LTADSSHYLCHEVAPPR (UniProt P29597) | 0.0552 | -0.0151
30 | UBA7_P41226_289_SLDTALLQPHVVAQSSQEVHHAHCLHQAFCALHK (UniProt P41226) | -0.332 | -0.156
31 | UBE3A_Q05086_198_AACSAAAMEEDSEASSSR (UniProt Q05086) | -0.044 | -0.416
32 | TYK2_P29597_402_CLELSLPSR (UniProt P29597) | 0.229 | -0.142
33 | UBE3A_Q05086_83_LCDPHPSK (UniProt Q05086) | 0.02 | -0.108
34 | UAP1L1_Q3KQV9_271_LADPVFIGFCVLQGADCGAK (UniProt Q3KQV9) | -0.0691 | -0.00351
35 | UBE4A_Q14139_710_VFCNFQYAPQLAEALIK (UniProt Q14139) | -0.122 | 0.137
